Experimental data published in EP3839043A1, “SCREENING METHODS FOR COMPOUNDS MODULATING POLYAMINE TRANSPORT” (Katholieke Universiteit Leuven, priority 2019, dated 2021).

Tests used:
[1] = target: T1, Microsomal ATP13A2 (Homo sapiens, UniProt Q9NQ11); test: ATPase assay (ADP-Glo Max), solubilized microsomes of SH-SY5Y cells overexpressing ATP13A2 WT; assay type: biochemical; settings: indicated doses; microsomes 5 µg
T1 construct: expressed in transfected cells; host or cells: SH-SY5Y human neuroblastoma cells, lentiviral transduction; microsomes solubilised with DDM
T1 sequence (Q9NQ11 1-1175 isoform Q9NQ11-3): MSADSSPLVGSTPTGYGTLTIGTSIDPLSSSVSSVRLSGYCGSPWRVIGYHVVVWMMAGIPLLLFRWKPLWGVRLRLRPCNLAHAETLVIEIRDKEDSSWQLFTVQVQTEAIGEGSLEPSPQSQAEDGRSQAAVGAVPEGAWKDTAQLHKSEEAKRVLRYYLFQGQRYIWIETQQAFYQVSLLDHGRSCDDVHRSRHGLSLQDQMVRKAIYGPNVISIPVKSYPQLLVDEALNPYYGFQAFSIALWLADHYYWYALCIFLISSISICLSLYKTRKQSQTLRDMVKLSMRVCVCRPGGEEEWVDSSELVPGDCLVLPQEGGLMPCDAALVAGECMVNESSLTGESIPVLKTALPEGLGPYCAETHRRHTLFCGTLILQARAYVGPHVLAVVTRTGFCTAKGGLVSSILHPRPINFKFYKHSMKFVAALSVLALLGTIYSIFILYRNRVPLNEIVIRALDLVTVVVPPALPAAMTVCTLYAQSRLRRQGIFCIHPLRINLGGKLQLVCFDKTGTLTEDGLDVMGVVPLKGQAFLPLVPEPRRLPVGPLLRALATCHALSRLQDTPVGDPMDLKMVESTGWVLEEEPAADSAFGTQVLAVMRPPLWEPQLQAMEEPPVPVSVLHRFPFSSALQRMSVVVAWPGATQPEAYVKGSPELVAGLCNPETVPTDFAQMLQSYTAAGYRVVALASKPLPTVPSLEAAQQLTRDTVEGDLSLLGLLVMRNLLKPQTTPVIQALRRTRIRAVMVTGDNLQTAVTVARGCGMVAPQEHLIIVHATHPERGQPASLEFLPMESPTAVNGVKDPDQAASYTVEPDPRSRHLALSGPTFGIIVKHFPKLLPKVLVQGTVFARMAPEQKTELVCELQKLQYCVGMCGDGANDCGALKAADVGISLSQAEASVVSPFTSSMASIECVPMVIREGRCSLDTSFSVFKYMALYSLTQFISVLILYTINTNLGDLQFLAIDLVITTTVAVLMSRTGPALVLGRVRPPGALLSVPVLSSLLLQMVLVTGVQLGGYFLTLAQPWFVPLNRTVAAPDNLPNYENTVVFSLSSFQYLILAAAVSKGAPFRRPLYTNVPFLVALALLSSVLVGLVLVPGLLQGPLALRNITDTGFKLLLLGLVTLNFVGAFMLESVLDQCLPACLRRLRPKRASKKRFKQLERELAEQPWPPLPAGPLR
Procedure: Membrane fractionation - Transduced SH-SY5Y cells were seeded in […] at a density of 6 x 10^6 cells per plate. 24 h later, the cells were harvested following trypsinization and brief centrifugation (300 x g, 5 min). Subcellular fractionation was performed by differential centrifugation. The microsomal protein concentration was measured using the bicinchoninic acid assay (Thermo Fischer Scientific, Pierce) according to the manufacturer's instructions.
ATPase assay - The ATPase activity of ATP13A2 was assessed using a commercially available luminescence assay (ADP-Glo Max assay, Promega) that monitors the production of ADP via luciferase activity. The reactions were performed for 30 min (37°C) in a final volume of 25 µl. […] The assay was started by the addition of 5 mM ATP and was terminated by adding 25 µl of ADP-Glo Reagent. The 96-well plate was then incubated for 40 min at room temperature, followed by the addition of 50 µl of ADP-Glo Max Detection Reagent. After 40 min, luminescence was detected using a FlexStation 3.0 system (Molecular Devices). Dose-response curves and n/Km/Vmax values were calculated using GraphPad Prism Software (GraphPad Software Inc.).

[2] = target: ATP13A2 (Homo sapiens, UniProt Q9NQ11); settings: WT-OE microsomes 20 µg, 60 s with [γ-32P] ATP
Procedure: PLoS One 13, e0193228, (2018)].
In case of purified ATP13A2, 125 µM PA and 125 µM PI(3,5)P2 were included in the reaction mixture. To determine the sensitivity of the ATP13A2 phosphoenzyme to ATP or a combination of ATP and SPM, 30 s after adding ^32P-ATP, samples were incubated with non-radioactive ATP (5 mM in experiments using microsomes, 1 mM when purified ATP13A2 was used) and SPM (1 mM) before the reaction was stopped at indicated time points. The incorporation of ^32P was visualized following SDS-PAGE under acidic conditions and subsequently detected by autoradiography (microsomes) or liquid scintillation counting (purified ATP13A2) (Liquid Scintillation Analyzer TRI-CARB 2900TR).

[3] = tested on: SH-SY5Y cells; test: MUH cytotoxicity assay; assay type: cell-based, human; settings: increasing concentrations, 24 h
Procedure: MUH cytotoxicity assay - SH-SY5Y cells were seeded in 96-well plates (1 X 10^4 cells per well) and allowed to adhere overnight. The cells were subsequently treated with increasing doses of the indicated compounds for 24-48 h. Following exposure, the cells were washed with PBS and stained with 300 µg/ml MUH (prepared in DMSO, dissolved in PBS) for 30 min at 37°C.

ATPase activity of ATP13A2, dose-response [1]: did not induce ATP13A2 activity
ATP13A2 phospho-enzyme levels [2]: not seen
SMILES: Cl.NCCC[C@H](N)C(=O)O [ornithine, L-ornithine monohydrochloride]
viability of control cells [3]: not cytotoxic
